According to the supplement of paper PMC7125110:
± gives the standard error. Many of these values have a large error.

B1: glmS ribozyme (parent)
chain: AUAAAAGCGCCAGAACUACAGAAAUGUAGUUGACGAGGAGGAGGUUUAUCGAAUUUUCGGCGGAUGCCUCCAAA

Variants of: B1
Experiment: self-cleavage kobs at 640 uM GlcN6P; higher = faster cleavage; RNA array
Settings: with glucosamine-6-phosphate
In short: (§1)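 Glucosamine-6-phosphate (40 μM to 10 mM) in HEPES/KCl/Mg(OAc)2 buffer was flowed over sequenced MiSeq chips, and tiles were imaged over ~14 h. Barcoded ribozyme variants there had been transcribed in situ by E. coli RNA polymerase and were tracked through a hybridised Cy3 probe at 37 °C. One- or two-exponential decay fits to per-tile medians, normalised to baseline and to non-cleaving reference variants, gave kobs. kcat and KM came from weighted Michaelis–Menten fits across concentrations.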

| Variant | self-cleavage kobs at 640 uM GlcN6P |
| --- | --- |
| AUAAAAGCGCCAGAACUACAGAAAUGUAGUUGACGAGGAGGAGGUUUAUCGAAGUUCCGGCGGAUGCCUCCAAA [U54G U57C] | 2.43e-05 ± 1.6e-05 s⁻¹ |
| AUAAAAGCGCCAGAACUACAGAAAUGUAGUUGACGAGGAGGAGGUUUAUCGAAUAUUCGGAGGAUGCAUCCAAA [U55A C61A C68A] | 2.94e-05 ± 2.8e-05 s⁻¹ |
| AUAAAAGCGCCAGAACUACAGAAAUGUAGUUGACGAGGAGGAGGUUUAUCGAAUGUUCCGCGGAUGGCUCCAAA [U55G G59C C67G] | 6.08e-05 ± 3e-05 s⁻¹ |
| AUAAAAGCGCCAGAACUACAGAAAUGUAGUUGACGAGGAGGAGGUUUAUCGAAUUUACGGCGGAUGCCUACAAA [U57A C70A] | 2.26e-05 ± 2.3e-05 s⁻¹ |
| AUAAAAGCGCCAGAACUACAGAAAUGUAGUUGACGAGGAGGAGGUUUAUCGAAUUUACGGCGUAUGCCUACAAA [U57A G63U C70A] | 2.97e-05 ± 3e-05 s⁻¹ |
| AUAAAAGCGCCAGAACUACAGAAAUGUAGUUGACGAGGAGGAGGUUUAUCGAAUUUACGGCGGAUGCCCCCAAA [U57A U69C] | 2.27e-05 ± 1.7e-05 s⁻¹ |
| AUAAAAGCGCCAGAACUACAGAAAUGUAGUUGACGAGGAGGAGGUUUAUCGAAUUUUGGGCGGAGGCCUGCAAA [C58G U65G C70G] | 3.72e-05 ± 2.3e-05 s⁻¹ |
| AUAAAAGCGCCAGAACUACAGAAAUGUAGUUGACGAGGAGGAGGUUUAUCGAAUUUUUGGCGGAUGUCUCCAAA [C58U C67U] | 1.91e-05 ± 1.1e-05 s⁻¹ |
| AUAAAAGCGCCAGAACUACAGAAAUGUAGUUGACGAGGAGGAGGUUUAUCGAAUUUUCCGCGGAUGCCGCCAAA [G59C U69G] | 2.28e-05 ± 1.7e-05 s⁻¹ |
| AUAAAAGCGCCAGAACUACAGAAAUGUAGUUGACGAGGAGGAGGUUUAUCGAAUUUUCUGCGGAUGCCACCAAA [G59U U69A] | 2.41e-05 ± 1.7e-05 s⁻¹ |
| AUAAAAGCGCCAGAACUACAGAAAUGUAGUUGACGAGGAGGAGGUUUAUCGAAUUUUCGGGGGAUGCCACCAAA [C61G U69A] | 3.11e-05 ± 1.7e-05 s⁻¹ |
| AUAAAAGCGCCAGAACUACAGAAAUGUAGUUGACGAGGAGGAGGUUUAUCGAAUUUUCGGCUGAUGCCUACAAA [G62U C70A] | 2.03e-05 ± 1.8e-05 s⁻¹ |
| AUAAAAGCGCCAGAACUACAGAAAUGUAGUUGACGAGGAGGAGGUUUAUCGAAUUUUCGGCGUUUGCCGGCAAA [G63U A64U U69G C70G] | 3.45e-05 ± 1.9e-05 s⁻¹ |
| AUAAAAGCGCCAGAACUACAGAAAUGUAGUUGACGAGGAGGAGGUUUAUCGAAUUUUCGGCGGAUGGCUCGAAA [C67G C71G] | 1.7e-05 ± 1.5e-05 s⁻¹ |
| AUAAAAGCGCCAGAACUACAGAAAUGUAGUUGACGAGGAGGAGGUUUAUCGAAUUUUCGGCGGAUGCCAACAAA [U69A C70A] | 2.37e-05 ± 2.1e-05 s⁻¹ |

Variants of: B1
Experiment: self-cleavage kobs at 2500 uM GlcN6P; higher = faster cleavage; RNA array
Settings: with glucosamine-6-phosphate
In short: as §1

| Variant | self-cleavage kobs at 2500 uM GlcN6P |
| --- | --- |
| AUAAAAGCGCCAGAACUACAGAAAUGUAGUUGACGAGGAGGAGGUUUAUCGAAUGUUCCGCGGAUGGCUCCAAA [U55G G59C C67G] | 3.51e-05 ± 3e-05 s⁻¹ |
| AUAAAAGCGCCAGAACUACAGAAAUGUAGUUGACGAGGAGGAGGUUUAUCGAAUUUACGGCGGAUGCCUACAAA [U57A C70A] | 1.95e-05 ± 1.2e-05 s⁻¹ |
| AUAAAAGCGCCAGAACUACAGAAAUGUAGUUGACGAGGAGGAGGUUUAUCGAAUUUACGGCGUAUGCCUACAAA [U57A G63U C70A] | 4.26e-05 ± 2.9e-05 s⁻¹ |
| AUAAAAGCGCCAGAACUACAGAAAUGUAGUUGACGAGGAGGAGGUUUAUCGAAUUUUGGGCGGAGGCCUGCAAA [C58G U65G C70G] | 2.65e-05 ± 2.5e-05 s⁻¹ |
| AUAAAAGCGCCAGAACUACAGAAAUGUAGUUGACGAGGAGGAGGUUUAUCGAAUUUUCGGGGGAUGCCACCAAA [C61G U69A] | 2.39e-05 ± 1.9e-05 s⁻¹ |
| AUAAAAGCGGCAGAACUACAGAAAUGUAGCUGACGAGGAGGAGGUUUAUCGAAUUUUCGGCGGAUGCGUCCAAA [C10G U30C C68G] | 3.15e-05 ± 2.1e-05 s⁻¹ |
| AUAAAAGCGCCUGAACUACAGAAAUGUAGAUGACGAGGAGGAGGUUUAUCGAAUUUUCGGCGGAUGCCUCCAAA [A12U U30A] | 0.0895 ± 0.069 s⁻¹ |

Variants of: B1
Experiment: self-cleavage kobs at 160 uM GlcN6P; higher = faster cleavage; RNA array
Settings: with glucosamine-6-phosphate
In short: as §1

| Variant | self-cleavage kobs at 160 uM GlcN6P |
| --- | --- |
| AUAAAAGCGCCAGAACUACAGAAAUGUAGUUGACGAGGAGGAGGUUUAUCGAAUUUACGGCGGAUGCCUACAAA [U57A C70A] | 3.29e-05 ± 2.5e-05 s⁻¹ |
| AUAAAAGCGCCAGAACUACAGAAAUGUAGUUGACGAGGAGGAGGUUUAUCGAAUUUUCGGGGGAUGCCACCAAA [C61G U69A] | 2.26e-05 ± 1.6e-05 s⁻¹ |
| AUAAAUGCGCCAGAACUACAGAAAUGUAGUUGAGGAGGAGGAGGUUGAUCGAAUUUUCGGCGGAUGUAUCCAAA [A6U C34G U47G C67U C68A] | 5.48e-05 ± 3.1e-05 s⁻¹ |
| AUAAAAUCGCCAGAACUACAGAAAUGUAGUUGACGAGGAGGAGGUUUAUCGAGUUUUCGGCGGAUGCCGCCAAA [G7U A53G U69G] | 0.000467 ± 0.00029 s⁻¹ |
| AUAAAAGUGCCAGAACUACAGAAAUGUAGUUUAUGAGGAGGAGGUUUAGCGAAUUUUCGACGGAUGCCUGCAAA [C8U G32U C34U U49G G60A C70G] | 3.59e-05 ± 2.6e-05 s⁻¹ |
| AUAAAAGCGGCAGAACUACAGAAAUGUAGUUGACGAGGAGGAGGUUUAUCGAAUUUUCGGCGGAUGGUUCCAAA [C10G C67G C68U] | 3.64e-05 ± 2.9e-05 s⁻¹ |
| AUAAAAGCGGCAGAACUACAGAAAUGUAGCUGACGAGGAGGAGGUUUAUCGAAUUUUCGGCGGAUGCGUCCAAA [C10G U30C C68G] | 3.82e-05 ± 2.4e-05 s⁻¹ |
| AUAAAAGCGUCAGAACUACAGAAAUGUAGUUGACGAGGAGGAGGUUUAUCGAAUUUUCGGCGGAUGCGUCCAAA [C10U C68G] | 1.84e-05 ± 9.5e-06 s⁻¹ |
| AUAAAAGCGCAAGAACUACAGAAAUGUAGUAGACGAGGAGGAGGUUUAUGGAAUUUUCGGCGGAUGGCUCCAAA [C11A U31A C50G C67G] | 3.27e-05 ± 2.3e-05 s⁻¹ |
| AUAAAAGCGCUAGUAUUACAGAAAUGUAGUUAACGAGUAGGAGGUUUAUCGAUUUUUCGGUGGCUGCCUCCAAA [C11U A14U C16U G32A G38U A53U C61U A64C] | 5.57e-05 ± 3.2e-05 s⁻¹ |
| AUAAAAGCGCCCGAACUACAGAAAUGUAGUUGACGAGGAGGAGGUUUAUCGAAUUUUCGGCGGGUGCCUCCAAA [A12C A64G] | 4.27e-05 ± 2.2e-05 s⁻¹ |
| AUAAAAGCGCCCGAACUACAGAAAUGUAGUUGACGAGGAGGAGAUUUAUCGAAUUUUCGGCGGAUGCCUCCAAA [A12C G44A] | 1.9e-05 ± 1.6e-05 s⁻¹ |
| AUAAAAGCGCCCGAACUACAGAAAUGUAGUUGACGAGGAGGAGGUUUAUCGAAGUUUCGGCGGAUGCGUCCAAA [A12C U54G C68G] | 6.54e-05 ± 3.7e-05 s⁻¹ |
| AUAAAAGCGCCUGAACUACAGAAAUGUAGAUGACGAGGAGGAGGUUUAUCGAAUUUUCGGCGGAUGCCUCCAAA [A12U U30A] | 0.00214 ± 0.0012 s⁻¹ |
| AUAAAAGCGCCAAAACUACAGAAAUGUAGUUGACGAGGAGGAGGUUUAUCGAAUUUUCGGCGGGUGCCUCCAAA [G13A A64G] | 2.13e-05 ± 1.8e-05 s⁻¹ |

For reference, part of the list above:

| Variant | self-cleavage kobs at 160 uM GlcN6P |
| --- | --- |
| AUAAAAUCGCCAGAACUACAGAAAUGUAGUUGACGAGGAGGAGGUUUAUCGAGUUUUCGGCGGAUGCCGCCAAA [G7U A53G U69G] | 0.000467 ± 0.00029 s⁻¹ |
| AUAAAAGUGCCAGAACUACAGAAAUGUAGUUUAUGAGGAGGAGGUUUAGCGAAUUUUCGACGGAUGCCUGCAAA [C8U G32U C34U U49G G60A C70G] | 3.59e-05 ± 2.6e-05 s⁻¹ |
| AUAAAAGCGGCAGAACUACAGAAAUGUAGUUGACGAGGAGGAGGUUUAUCGAAUUUUCGGCGGAUGGUUCCAAA [C10G C67G C68U] | 3.64e-05 ± 2.9e-05 s⁻¹ |
